Measurements taken from publication PMC9747961.
These are yes or no findings as the source states them, for the method shown. Binding seen in cells or lysates may run through a third protein. Some results given as binding are weak or reduced against the parent protein; the word gives no strength. Where a sequence is shown, tags or fusion partners need not be part of it.

Protein sequences, listed by entry. Tags and fused reporters are not part of them.
UniProt Q91YI4: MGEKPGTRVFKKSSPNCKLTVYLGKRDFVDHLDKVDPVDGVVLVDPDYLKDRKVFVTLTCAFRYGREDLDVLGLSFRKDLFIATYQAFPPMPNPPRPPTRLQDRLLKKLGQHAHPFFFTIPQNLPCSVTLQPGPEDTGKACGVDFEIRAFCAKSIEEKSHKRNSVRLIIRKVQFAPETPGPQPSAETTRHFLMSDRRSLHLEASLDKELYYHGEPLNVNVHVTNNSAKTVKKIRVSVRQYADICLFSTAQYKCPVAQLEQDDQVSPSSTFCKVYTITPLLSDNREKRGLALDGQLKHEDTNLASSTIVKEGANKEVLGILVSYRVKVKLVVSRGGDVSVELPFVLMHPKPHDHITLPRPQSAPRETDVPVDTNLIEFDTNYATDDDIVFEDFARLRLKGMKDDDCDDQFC
UniProt P32121: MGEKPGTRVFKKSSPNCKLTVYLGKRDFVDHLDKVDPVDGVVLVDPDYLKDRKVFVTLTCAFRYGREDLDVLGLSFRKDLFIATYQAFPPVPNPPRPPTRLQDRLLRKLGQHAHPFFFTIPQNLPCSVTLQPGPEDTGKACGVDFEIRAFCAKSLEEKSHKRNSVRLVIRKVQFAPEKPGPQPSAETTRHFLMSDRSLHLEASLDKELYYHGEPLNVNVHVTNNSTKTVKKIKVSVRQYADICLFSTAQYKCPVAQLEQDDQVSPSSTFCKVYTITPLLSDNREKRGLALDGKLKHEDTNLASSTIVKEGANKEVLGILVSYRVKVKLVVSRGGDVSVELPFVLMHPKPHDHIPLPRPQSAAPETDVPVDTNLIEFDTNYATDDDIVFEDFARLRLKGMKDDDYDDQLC

What was measured:
[1] = target: β-arrestin 2 (in mouse primary VSMCs) (mouse (endogenous in primary VSMCs)) (UniProt Q91YI4); test: co-IP; WT mouse primary VSMCs expressing GPR120-tGFP; cells lysed in RIPA buffer; immunoprecipitates analysed by western blot (Fig. 4N, O); an anti-β-arrestin 2 antibody (sc-365445) is listed for the IP assay
[2] = target: β-arrestin 2 (in 293T cells) (human (endogenous in 293T)) (UniProt P32121); test: co-IP; 293T cells transfected with GPR120-tGFP (WT) or K32R/GPR120-tGFP together with the SUMO2-HA plasmid (Fig. S4G)

| binding [1] | binding [2] | Binder |
| --- | --- | --- |
| binds | – | GPR120-tGFP fusion protein (green fluorescent protein-tagged GPR120), expressed in mouse primary VSMCs (receptor, UniProt Q7TMA4 1-361) MSPECAQTTGPGPSHTLDQVNRTHFPFFSDVKGDHRLVLSVVETTVLGLIFVVSLLGNVCALVLVARRRRRGATASLVLNLFCADLLFTSAIPLVLVVRWTEAWLLGPVVCHLLFYVMTMSGSVTILTLAAVSLERMVCIVRLRRGLSGPGRRTQAALLAFIWGYSALAALPLCILFRVVPQRLPGGDQEIPICTLDWPNRIGEISWDVFFVTLNFLVPGLVIVISYSKILQITKASRKRLTLSLAYSESHQIRVSQQDYRLFRTLFLLMVSFFIMWSPIIITILLILIQNFRQDLVIWPSLFFWVVAFTFANSALNPILYNMSLFRNEWRKIFCCFFFPEKGAIFTDTSVRRNDLSVISS |
| – | binds | K32R/GPR120-tGFP fusion protein, expressed in 293T cells with the SUMO2-HA plasmid (receptor, UniProt Q7TMA4 1-361) MSPECAQTTGPGPSHTLDQVNRTHFPFFSDVRGDHRLVLSVVETTVLGLIFVVSLLGNVCALVLVARRRRRGATASLVLNLFCADLLFTSAIPLVLVVRWTEAWLLGPVVCHLLFYVMTMSGSVTILTLAAVSLERMVCIVRLRRGLSGPGRRTQAALLAFIWGYSALAALPLCILFRVVPQRLPGGDQEIPICTLDWPNRIGEISWDVFFVTLNFLVPGLVIVISYSKILQITKASRKRLTLSLAYSESHQIRVSQQDYRLFRTLFLLMVSFFIMWSPIIITILLILIQNFRQDLVIWPSLFFWVVAFTFANSALNPILYNMSLFRNEWRKIFCCFFFPEKGAIFTDTSVRRNDLSVISS |
